Measured values from paper PMC4648529.
These are yes or no findings as the source states them, for the method shown. In cells and extracts the contact can be indirect. Some entries that bind do so weakly or less than the wild type.

Amino acid sequences for entries named in this document (tags omitted).
UniProt P62491: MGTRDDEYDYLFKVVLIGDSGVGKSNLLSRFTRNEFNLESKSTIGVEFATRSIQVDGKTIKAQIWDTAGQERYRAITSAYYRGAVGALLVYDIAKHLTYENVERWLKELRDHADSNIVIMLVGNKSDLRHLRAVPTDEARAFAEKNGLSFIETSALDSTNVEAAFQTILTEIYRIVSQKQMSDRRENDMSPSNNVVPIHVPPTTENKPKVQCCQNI
UniProt P03431: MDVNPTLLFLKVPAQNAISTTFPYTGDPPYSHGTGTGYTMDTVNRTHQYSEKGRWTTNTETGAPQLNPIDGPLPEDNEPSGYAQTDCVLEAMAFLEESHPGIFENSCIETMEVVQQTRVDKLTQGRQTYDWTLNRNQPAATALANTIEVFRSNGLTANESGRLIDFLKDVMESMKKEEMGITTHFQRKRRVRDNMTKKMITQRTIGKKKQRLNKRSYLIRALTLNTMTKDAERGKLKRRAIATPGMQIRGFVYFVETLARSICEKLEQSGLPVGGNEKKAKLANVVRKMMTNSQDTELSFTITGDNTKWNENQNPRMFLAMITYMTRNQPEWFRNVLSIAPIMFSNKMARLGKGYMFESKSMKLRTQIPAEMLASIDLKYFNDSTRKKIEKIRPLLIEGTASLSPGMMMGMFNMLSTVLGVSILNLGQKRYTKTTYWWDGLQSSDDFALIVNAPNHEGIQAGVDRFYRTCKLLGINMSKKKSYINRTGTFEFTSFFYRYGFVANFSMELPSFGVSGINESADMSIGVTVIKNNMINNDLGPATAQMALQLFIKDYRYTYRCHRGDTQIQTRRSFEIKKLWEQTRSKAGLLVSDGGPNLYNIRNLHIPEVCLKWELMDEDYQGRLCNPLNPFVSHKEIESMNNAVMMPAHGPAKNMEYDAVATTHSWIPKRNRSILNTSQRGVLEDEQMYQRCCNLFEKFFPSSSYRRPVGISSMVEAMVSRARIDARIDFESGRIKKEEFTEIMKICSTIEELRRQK
UniProt P03466: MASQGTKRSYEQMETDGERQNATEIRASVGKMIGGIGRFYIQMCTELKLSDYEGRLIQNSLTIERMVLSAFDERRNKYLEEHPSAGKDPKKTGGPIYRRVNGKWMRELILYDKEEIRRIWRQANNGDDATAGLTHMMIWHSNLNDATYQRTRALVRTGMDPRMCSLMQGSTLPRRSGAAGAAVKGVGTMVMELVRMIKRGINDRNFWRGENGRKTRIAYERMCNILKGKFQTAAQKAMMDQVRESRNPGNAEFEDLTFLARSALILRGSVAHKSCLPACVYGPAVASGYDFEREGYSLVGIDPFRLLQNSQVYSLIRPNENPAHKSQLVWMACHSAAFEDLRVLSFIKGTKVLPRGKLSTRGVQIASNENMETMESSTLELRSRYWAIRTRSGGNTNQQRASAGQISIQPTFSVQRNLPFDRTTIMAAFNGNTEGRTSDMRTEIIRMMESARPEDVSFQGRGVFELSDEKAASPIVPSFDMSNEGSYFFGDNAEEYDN

Legend:
[1] = molecular target: HA (wild-type influenza virus) (influenza virus A/Puerto Rico/8/34) (UniProt P03452); assay: proximity ligation
FLAG-Rab11a = FLAG-Rab11a (UniProt P62491); assay: co-IP

Substance	binding [1]	binding (FLAG-Rab11a)
M1 (from UniProt P03485 1-252)	binds	
PB1 subunit of viral polymerase (from UniProt P03431 1-757)		binds
nucleoprotein (NP) (from UniProt P03466 1-498)		binds
